Results from patent US11173162B2, “Bicyclic heterocycles as FGFR4 inhibitors” (Incyte Corporation, priority 2015, dated 2021).
For at least one compound, name, drawing or mass did not settle the structure.

System: FGFR3 enzyme
Assay: FGFR Enzymatic Assay (FRET peptide phosphorylation), FGFR3
Type: biochemical
Details: IC50 ratio showing FGFR3 selectivity; Table 2A, pre-incubated for 4 hours
Method: The inhibitor potency of the exemplified compounds was measured in an enzyme assay that measures peptide phosphorylation using FRET measurements to detect product formation. Inhibitors were serially diluted in DMSO and a volume of 0.5 μL was transferred to the wells of a 384-well plate.
GraphPad prism3 was used to analyze the data.

COc1cc(OC)c(F)c(N2Cc3cnc(-c4cnn(C5CN(S(C)(=O)=O)C5)c4)cc3C3(CC3)C2=O)c1F [Example 55, 2′-(2,6-difluoro-3,5-dimethoxyphenyl)-6′-(1-(1-(methylsulfonyl)azetidin-3-yl)-1H-pyrazol-4-yl)-1′H-spiro[cyclopropane-1,4′-[2,7]naphthyridin]-3′(2′H)-one]
FGFR1/FGFR3: >10
FGFR4/FGFR3: >5

COc1cc(OC)c(F)c(N2Cc3cnc(-c4cn(C)nc4C)cc3N(Cc3cnn(C)c3C)C2=O)c1F [Example 48, 3-(2,6-difluoro-3,5-dimethoxyphenyl)-7-(1,3-dimethyl-1H-pyrazol-4-yl)-1-[(1,5-dimethyl-1H-pyrazol-4-yl)methyl]-3,4-dihydropyrido[4,3-d]pyrimidin-2(1H)-one]
FGFR1/FGFR3: >10
FGFR4/FGFR3: >10
